Two molecules from article PMC9682730 can be followed below.

Sequences of proteins named here, by UniProt entry; tags and fusion partners are left off. A change or cut given only in a name is not applied to a line headed by its entry.
UniProt Q9UQN3: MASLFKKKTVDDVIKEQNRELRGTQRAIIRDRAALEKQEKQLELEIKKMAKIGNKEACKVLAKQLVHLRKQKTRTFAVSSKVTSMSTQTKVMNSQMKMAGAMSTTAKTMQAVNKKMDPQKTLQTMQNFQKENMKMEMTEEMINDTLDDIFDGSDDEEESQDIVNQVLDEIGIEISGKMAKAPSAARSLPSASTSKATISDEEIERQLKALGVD
UniProt Q9NZZ3: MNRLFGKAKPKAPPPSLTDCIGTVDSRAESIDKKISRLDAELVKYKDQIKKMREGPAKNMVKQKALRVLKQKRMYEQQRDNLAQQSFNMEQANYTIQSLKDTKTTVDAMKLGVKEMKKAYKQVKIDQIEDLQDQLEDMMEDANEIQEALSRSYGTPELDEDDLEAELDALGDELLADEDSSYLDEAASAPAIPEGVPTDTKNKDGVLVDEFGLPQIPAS

These are yes or no findings as the source states them, for the method shown. Binding seen in cells or lysates may run through a third protein. These calls come from enrichment with a bait or labelling near it, and not all partners need be listed.

The assay concerns the target FLAG-CHMP2B^Intron5 (UniProt Q9UQN3). Put plainly: affinity purification with mass spectrometry; anti-FLAG M2 affinity gel IP from lysates of HEK293 cells transfected with FLAG-CHMP2B^Intron5, FLAG-CHMP2B^WT or empty FLAG vector; FLAG peptide elution; in-gel digestion, LC-MS/MS, IBAQ quantification.

Consider CHMP5 (from UniProt Q9NZZ3 1-219), for which the binding entry was “binds”.

B1: CHMP1B (protein, UniProt Q7LBR1 1-199)
chain: MSNMEKHLFNLKFAAKELSRSAKKCDKEEKAEKAKIKKAIQKGNMEVARIHAENAIRQKNQAVNFLRMSARVDAVAARVQTAVTMGKVTKSMAGVVKSMDATLKTMNLEKISALMDKFEHQFETLDVQTQQMEDTMSSTTTLTTPQNQVDMLLQEMADEAGLDLNMELPQGQTGSVGTSVASAEQDELSQRLARLRDQV
In the case of B1, the binding entry was “binds”.
